# In the supplement of paper PMC10849652:
# Sequences of proteins named here, by UniProt entry; tags and fusion partners are left off. A change or cut given only in a name is not applied to a line headed by its entry.
# UniProt Q96QP1: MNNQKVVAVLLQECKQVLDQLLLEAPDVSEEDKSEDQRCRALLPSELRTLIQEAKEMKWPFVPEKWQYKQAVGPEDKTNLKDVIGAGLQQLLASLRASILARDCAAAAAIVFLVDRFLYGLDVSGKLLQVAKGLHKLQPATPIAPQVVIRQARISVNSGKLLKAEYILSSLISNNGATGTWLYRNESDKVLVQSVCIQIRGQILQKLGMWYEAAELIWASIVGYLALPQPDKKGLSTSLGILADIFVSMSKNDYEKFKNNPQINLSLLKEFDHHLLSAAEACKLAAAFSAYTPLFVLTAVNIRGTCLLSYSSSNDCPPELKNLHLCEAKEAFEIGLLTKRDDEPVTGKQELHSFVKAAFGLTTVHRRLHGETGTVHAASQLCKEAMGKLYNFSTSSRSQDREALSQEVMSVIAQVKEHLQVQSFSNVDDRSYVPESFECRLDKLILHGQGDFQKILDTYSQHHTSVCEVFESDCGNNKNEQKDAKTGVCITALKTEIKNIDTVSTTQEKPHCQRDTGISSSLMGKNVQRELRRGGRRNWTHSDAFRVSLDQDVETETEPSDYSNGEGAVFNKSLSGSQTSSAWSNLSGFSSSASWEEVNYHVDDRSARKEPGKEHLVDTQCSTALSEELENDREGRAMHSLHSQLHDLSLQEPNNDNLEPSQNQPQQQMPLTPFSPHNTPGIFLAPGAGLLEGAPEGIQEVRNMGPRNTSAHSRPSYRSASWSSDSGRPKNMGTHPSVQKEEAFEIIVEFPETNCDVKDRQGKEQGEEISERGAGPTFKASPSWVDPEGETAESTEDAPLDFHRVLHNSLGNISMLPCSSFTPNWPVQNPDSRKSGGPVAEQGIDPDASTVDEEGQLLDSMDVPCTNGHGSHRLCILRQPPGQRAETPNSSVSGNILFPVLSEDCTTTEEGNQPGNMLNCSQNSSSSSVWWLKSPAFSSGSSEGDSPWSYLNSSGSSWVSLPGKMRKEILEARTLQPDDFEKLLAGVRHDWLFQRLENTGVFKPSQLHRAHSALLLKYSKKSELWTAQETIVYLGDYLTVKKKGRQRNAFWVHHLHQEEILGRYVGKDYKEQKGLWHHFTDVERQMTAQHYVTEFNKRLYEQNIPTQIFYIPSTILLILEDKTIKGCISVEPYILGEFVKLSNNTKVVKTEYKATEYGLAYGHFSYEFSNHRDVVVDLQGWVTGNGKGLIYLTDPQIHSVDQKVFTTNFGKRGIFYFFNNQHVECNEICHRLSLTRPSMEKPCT
# UniProt Q5I7T1: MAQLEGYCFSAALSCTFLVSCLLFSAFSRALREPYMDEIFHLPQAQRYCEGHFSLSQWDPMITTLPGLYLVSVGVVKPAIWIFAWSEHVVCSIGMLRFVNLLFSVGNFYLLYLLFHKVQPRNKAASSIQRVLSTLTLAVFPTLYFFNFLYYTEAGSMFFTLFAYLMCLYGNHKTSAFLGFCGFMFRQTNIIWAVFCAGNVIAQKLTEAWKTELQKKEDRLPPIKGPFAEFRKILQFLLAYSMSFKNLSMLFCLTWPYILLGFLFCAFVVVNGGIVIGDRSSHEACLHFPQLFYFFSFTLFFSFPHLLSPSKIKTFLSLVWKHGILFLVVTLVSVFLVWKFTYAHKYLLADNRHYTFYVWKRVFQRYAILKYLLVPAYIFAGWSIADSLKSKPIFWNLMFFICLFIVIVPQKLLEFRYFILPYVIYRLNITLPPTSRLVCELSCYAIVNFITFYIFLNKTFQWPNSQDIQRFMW
# UniProt Q86YJ7: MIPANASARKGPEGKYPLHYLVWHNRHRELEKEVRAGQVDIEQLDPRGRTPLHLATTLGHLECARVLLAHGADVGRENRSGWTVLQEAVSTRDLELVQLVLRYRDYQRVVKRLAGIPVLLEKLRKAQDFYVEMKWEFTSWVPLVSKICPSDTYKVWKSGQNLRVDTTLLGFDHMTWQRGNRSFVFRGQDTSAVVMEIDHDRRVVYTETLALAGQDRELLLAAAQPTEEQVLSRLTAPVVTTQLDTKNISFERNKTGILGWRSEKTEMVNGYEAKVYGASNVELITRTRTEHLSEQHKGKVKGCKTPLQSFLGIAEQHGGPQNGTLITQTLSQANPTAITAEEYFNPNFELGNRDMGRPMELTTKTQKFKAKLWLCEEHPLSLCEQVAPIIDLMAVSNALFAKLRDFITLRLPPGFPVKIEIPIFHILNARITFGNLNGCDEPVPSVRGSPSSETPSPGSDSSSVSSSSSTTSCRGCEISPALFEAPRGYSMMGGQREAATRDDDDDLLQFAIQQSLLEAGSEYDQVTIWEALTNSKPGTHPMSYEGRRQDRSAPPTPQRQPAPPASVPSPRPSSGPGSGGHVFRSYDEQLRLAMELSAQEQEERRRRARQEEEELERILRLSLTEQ
# UniProt Q6ZW76: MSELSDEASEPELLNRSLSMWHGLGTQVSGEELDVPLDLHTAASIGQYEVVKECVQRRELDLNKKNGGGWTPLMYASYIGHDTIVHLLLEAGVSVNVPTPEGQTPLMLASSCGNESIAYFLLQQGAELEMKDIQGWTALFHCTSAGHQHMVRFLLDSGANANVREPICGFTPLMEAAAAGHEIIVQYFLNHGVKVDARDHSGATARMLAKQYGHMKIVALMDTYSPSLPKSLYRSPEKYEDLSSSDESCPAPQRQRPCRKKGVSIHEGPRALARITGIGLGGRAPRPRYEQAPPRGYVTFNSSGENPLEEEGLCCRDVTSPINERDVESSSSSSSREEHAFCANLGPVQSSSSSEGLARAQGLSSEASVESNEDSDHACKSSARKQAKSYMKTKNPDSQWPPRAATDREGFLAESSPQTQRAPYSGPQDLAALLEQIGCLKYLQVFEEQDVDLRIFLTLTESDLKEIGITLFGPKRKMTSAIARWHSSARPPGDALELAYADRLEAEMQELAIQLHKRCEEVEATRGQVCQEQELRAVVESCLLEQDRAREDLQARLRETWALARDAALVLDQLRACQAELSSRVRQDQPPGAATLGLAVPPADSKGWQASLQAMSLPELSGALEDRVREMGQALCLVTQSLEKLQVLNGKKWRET
# UniProt P54886: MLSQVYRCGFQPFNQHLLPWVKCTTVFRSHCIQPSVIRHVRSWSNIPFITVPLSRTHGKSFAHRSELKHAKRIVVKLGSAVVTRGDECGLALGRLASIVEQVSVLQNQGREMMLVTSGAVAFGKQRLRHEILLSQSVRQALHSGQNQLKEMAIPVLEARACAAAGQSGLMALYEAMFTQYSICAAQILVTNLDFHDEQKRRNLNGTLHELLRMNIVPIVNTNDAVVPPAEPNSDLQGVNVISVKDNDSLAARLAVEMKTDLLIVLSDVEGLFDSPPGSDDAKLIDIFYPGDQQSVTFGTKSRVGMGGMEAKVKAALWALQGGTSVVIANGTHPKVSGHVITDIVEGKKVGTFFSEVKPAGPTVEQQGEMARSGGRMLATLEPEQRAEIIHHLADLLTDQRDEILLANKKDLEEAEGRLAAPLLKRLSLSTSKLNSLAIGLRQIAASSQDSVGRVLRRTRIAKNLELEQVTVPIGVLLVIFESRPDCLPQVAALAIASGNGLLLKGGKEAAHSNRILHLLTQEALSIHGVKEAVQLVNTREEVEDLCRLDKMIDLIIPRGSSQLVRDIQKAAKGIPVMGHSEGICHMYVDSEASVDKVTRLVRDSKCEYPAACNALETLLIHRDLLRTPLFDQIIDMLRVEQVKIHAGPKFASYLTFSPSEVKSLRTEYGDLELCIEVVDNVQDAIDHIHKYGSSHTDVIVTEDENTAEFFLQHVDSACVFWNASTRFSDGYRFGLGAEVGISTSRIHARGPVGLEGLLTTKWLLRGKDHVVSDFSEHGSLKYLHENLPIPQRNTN
# UniProt Q9BTT0: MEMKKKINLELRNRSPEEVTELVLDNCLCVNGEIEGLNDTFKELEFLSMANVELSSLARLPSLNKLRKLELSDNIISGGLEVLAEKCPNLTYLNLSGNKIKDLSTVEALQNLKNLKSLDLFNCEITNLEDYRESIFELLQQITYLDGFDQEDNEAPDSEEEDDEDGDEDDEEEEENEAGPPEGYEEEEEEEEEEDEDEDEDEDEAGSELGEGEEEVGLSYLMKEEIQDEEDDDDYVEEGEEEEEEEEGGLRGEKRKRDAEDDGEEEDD
# UniProt Q9BT30: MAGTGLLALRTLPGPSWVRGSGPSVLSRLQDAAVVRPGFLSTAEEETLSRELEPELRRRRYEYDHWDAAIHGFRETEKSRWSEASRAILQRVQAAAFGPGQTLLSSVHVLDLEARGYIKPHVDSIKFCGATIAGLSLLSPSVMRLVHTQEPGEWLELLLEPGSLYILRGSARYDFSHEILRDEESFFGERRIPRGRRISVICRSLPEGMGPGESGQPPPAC
# UniProt Q9NYG5, whole entry, looked up: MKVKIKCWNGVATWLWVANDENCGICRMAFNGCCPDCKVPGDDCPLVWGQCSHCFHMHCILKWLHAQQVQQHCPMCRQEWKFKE
# UniProt Q96PC3: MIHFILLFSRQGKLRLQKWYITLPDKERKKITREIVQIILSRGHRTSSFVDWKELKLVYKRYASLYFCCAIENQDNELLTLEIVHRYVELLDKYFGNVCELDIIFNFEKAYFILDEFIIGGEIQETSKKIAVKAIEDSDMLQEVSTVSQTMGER
# UniProt Q6UB98: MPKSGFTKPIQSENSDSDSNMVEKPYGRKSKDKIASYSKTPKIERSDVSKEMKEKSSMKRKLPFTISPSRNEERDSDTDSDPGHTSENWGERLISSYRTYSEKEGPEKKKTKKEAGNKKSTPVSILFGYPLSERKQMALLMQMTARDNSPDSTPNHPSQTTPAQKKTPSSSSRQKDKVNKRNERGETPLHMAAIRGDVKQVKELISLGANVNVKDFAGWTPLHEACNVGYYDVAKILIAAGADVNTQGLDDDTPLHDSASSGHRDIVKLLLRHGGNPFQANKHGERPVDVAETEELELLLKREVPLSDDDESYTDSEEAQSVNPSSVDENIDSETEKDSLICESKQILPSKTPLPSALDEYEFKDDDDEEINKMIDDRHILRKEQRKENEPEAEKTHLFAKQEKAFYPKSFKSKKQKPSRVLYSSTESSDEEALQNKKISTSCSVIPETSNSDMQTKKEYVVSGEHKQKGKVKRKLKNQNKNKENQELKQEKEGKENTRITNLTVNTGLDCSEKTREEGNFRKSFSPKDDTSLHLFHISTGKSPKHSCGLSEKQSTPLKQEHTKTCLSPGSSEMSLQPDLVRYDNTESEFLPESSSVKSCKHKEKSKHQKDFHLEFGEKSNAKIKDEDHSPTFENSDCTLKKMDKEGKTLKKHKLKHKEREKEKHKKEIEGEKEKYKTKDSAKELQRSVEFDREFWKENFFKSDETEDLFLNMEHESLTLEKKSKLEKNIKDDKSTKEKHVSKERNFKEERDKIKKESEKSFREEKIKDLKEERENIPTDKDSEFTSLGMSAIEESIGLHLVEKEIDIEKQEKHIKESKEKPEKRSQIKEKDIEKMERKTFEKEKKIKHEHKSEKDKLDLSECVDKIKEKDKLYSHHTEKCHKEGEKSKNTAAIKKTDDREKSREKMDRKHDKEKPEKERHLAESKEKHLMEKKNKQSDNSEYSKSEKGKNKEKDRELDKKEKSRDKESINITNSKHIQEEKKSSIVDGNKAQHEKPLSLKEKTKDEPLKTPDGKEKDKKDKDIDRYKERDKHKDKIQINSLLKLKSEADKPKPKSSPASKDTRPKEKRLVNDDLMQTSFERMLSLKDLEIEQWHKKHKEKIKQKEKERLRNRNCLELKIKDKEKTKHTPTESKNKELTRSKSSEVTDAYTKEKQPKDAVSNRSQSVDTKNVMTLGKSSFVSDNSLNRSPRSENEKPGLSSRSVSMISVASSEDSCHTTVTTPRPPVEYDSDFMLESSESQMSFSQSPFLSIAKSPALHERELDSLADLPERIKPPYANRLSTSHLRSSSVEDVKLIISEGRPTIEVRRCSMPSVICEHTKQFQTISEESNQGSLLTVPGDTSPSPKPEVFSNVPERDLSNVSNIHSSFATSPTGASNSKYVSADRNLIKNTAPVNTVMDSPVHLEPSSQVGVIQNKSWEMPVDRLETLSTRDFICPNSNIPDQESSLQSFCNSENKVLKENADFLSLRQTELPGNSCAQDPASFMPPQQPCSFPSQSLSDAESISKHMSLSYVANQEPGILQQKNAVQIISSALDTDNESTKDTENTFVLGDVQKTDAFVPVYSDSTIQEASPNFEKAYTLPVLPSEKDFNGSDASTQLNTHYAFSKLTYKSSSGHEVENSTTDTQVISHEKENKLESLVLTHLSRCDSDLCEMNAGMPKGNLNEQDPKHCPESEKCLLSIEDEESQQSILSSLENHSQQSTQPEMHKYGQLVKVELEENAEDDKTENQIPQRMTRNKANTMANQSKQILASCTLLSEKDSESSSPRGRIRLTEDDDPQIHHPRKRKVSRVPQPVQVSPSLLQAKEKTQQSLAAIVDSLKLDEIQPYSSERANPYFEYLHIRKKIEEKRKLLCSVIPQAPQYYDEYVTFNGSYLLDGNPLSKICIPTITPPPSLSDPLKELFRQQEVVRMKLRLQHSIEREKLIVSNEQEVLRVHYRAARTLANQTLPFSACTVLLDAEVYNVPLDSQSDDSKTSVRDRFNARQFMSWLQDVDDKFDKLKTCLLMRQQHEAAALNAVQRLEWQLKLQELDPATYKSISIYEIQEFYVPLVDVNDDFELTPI
# The list shows a part of the results.
# Tests used:
# Assay in all cases: log2 fold change, soluble protein after heating vs DMSO (PISA); higher = thermal stabilisation; K562 lysate, 10 uM; active = over 0.2 and 3.5 SD of the protein, either way, in both replicates (recomputed)
# vorinostat = compound: O=C(CCCCCCC(=O)Nc1ccccc1)NO [vorinostat]
# Outline: (§1)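 Log-two fold change in thermal stability relative to solvent controls is reported from duplicates. For each sample, crude K562 extract from dounce-homogenised pellets in PBS pH 7.4 with 1 mM MgCl2, at 1 mg/mL protein, was treated with 10 μM compound for 30 min. Aliquots heated for 3 min across 48°C-58°C were pooled, brought to 0.5% NP-40 at 4°C and cleared at 21,000xg for 90 min. The supernatant was quantified by TMTpro 16plex LC-MS/MS with channel sums equalised.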
# silmitasertib = compound: O=C(O)c1ccc2c(c1)nc(Nc1cccc(Cl)c1)c1ccncc12 [silmitasertib]
# Outline: as §1
# [1] = compound: O=C1NC(=O)C(c2cnc3ccccn23)=C1c1cn2c3c(cc(F)cc13)CN(C(=O)N1CCCCC1)CC2
# Outline: as §1
# entospletinib = compound: c1cn2cc(-c3ccc4cn[nH]c4c3)nc(Nc3ccc(N4CCOCC4)cc3)c2n1 [entospletinib]
# Outline: as §1
# [2] = compound: NCC(=O)Nc1ccc(-n2nc(C(F)(F)F)cc2-c2ccc3c(ccc4ccccc43)c2)cc1
# Outline: as §1
target,measurement,setting,value
ALPK1 (UniProt Q96QP1),log2 fold change,vorinostat,inactive: 0.002
same,log2 fold change,silmitasertib,inactive: 0.076
AP1S2 (UniProt H7BZG6),log2 fold change,vorinostat,inactive: -0.096
same,log2 fold change,silmitasertib,inactive: -0.159
ALG10B (UniProt Q5I7T1),log2 fold change,vorinostat,inactive: 0.014
same,log2 fold change,silmitasertib,inactive: -0.076
same,log2 fold change,[1],inactive: -0.04
ANKRD13B (UniProt Q86YJ7),log2 fold change,entospletinib,inactive: -0.119
ANKRD39 (UniProt Q53RE8),log2 fold change,[1],inactive: 0.129
ANKS3 (UniProt Q6ZW76),log2 fold change,[2],inactive: 0.013
same,log2 fold change,[1],inactive: 0.016
same,log2 fold change,entospletinib,inactive: 0.014
ANKRD16 (UniProt Q6P6B7),log2 fold change,[1],inactive: -0.071
same,log2 fold change,entospletinib,inactive: -0.045
ALDH18A1 isoform 2 (UniProt P54886),log2 fold change,[2],inactive: 0.097
same,log2 fold change,[1],inactive: 0.204
ANKHD1 (UniProt D6RHC4),log2 fold change,vorinostat,inactive: 0.071
same,log2 fold change,silmitasertib,inactive: -0.429
ANP32E isoform 3 (UniProt Q9BTT0),log2 fold change,[2],inactive: 0.135
same,log2 fold change,entospletinib,inactive: -0.095
ALKBH7 (UniProt Q9BT30),log2 fold change,vorinostat,active: 1.23
same,log2 fold change,silmitasertib,inactive: -0.031
same,log2 fold change,[1],inactive: 0.079
same,log2 fold change,entospletinib,inactive: 0.151
ANAPC11 (UniProt Q9NYG5),log2 fold change,[1],inactive: 0.136
ANXA2 (UniProt H0YL33),log2 fold change,vorinostat,inactive: -0.153
same,log2 fold change,silmitasertib,inactive: 0.16
same,log2 fold change,[1],inactive: 0.042
AP1S3 isoform 4 (UniProt Q96PC3),log2 fold change,vorinostat,inactive: 0.045
same,log2 fold change,silmitasertib,inactive: 0.116
ANKRD12 (UniProt Q6UB98),log2 fold change,entospletinib,inactive: -0.047
ANK2 (UniProt Q01484),log2 fold change,[1],inactive: 0.076

# Taken from the results shown (three entries):
target,measurement,setting,value
ANKS3 (UniProt Q6ZW76),log2 fold change,[2],inactive: 0.013
same,log2 fold change,[1],inactive: 0.016
same,log2 fold change,entospletinib,inactive: 0.014
